Test results published in patent US10322114B2 (Above and Beyond NB LLC, priority 2017, dated 2019).

What was measured:
[1] = dog, IT infusion 0.2 mg/hour plus 50 mg oral tablet twice daily, 5 days
Experimental: Observations for morbidity, mortality, injury, and the availability of food and water were conducted twice daily for all animals.

[2] = 48 hours or 1 week
[3] = oral 1.3 mg/kg BID 14 days versus IT 0.25 mg/hour 5 days; higher in oral
[4] = in vivo; settings: Mongrel, dog, 0.1 mg/hour, elimination half-life of riluzole from plasma, dog #1205, after 3 weeks continuous IT infusion 0.1 mg/hour

## Nc1nc2ccc(OC(F)(F)F)cc2s1 [Riluzole, 2-Amino-6-(trifluoromethoxy)benzothiazole]
[1]
  distribution in the brain: found throughout the brain
[1]; highest levels around the catheter tip
  biodistribution in the spinal cord: good biodistribution throughout the spinal cord
[2]; 5% and 1% HP-β-CD, 5° C. and 40° C.
  form change of undissolved riluzole (XRPD): No form change
[2]; any concentration of HP-β-CD, room temperature
  crystal form change of undissolved riluzole (XRPD): no crystal form change
[3]
  riluzole accumulation in brain tissue, oral-treated compared to IT-treated dogs: approximately 700 fold
[4]
  half-life: 14 h
